Results: patent US20130143299A1
Results are given in words; binding and its absence hold for the method and conditions named. In cells and extracts the contact can be indirect. Some entries that bind do so weakly or less than the wild type. Tags and fused reporters may be left off the sequences shown.

Protein sequences, listed by entry. Tags and fused reporters are not part of them. Residues count along the entry.
UniProt P27361, residues 2-379: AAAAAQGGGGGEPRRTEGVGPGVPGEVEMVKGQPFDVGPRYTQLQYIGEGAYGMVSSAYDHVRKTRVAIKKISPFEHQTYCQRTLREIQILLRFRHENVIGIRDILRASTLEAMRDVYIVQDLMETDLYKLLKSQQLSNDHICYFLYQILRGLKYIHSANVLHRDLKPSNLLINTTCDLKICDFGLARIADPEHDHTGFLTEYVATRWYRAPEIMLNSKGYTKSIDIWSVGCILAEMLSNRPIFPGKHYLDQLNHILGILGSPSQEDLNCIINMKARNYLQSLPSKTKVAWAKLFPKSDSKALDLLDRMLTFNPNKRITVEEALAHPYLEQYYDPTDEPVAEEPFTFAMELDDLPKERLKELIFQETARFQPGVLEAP
UniProt P28482, residues 2-360: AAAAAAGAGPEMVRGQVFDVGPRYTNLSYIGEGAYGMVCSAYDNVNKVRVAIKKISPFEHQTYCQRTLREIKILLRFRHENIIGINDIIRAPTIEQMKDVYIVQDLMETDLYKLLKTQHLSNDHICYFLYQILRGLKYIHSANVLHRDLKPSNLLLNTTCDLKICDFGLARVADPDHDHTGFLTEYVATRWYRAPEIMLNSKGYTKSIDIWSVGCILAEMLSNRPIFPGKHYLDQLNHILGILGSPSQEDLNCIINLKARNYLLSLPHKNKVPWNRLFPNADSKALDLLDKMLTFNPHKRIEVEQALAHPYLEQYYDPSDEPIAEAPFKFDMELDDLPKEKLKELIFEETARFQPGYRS

How the values were obtained:
[1] = target: endogenous Erk1 of HEK293T cells (UniProt P27361); experiment: His-tag (TALON resin) pull-down from transfected HEK293T cells, Western blot with anti-ERK antibody
[2] = target: endogenous Erk2 of HEK293T cells (UniProt P28482); experiment: as above
[3] = target: endogenous Erk1 of HEK293T cells (UniProt P27361); experiment: His-tag pull-down (TALON resin) from lysate of HEK293T cells expressing the V5/His clone; Western blot with anti-ERK antibody
[4] = target: endogenous Erk2 of HEK293T cells (UniProt P28482); experiment: as above

Measured: binding

B1: Erk2 clone N expressed from pcDNA3.1-RNF8-V5/His in HEK293T cells (designed binder, not shown: small tags and cut ends)
chain: GEPGFFVTGDRAGGRSWCLRRVGMSAGWLLLEDGCEVTVGWGGGVTYQLVSKGYLWQRRTNHCVLKQNPEGQWTIMDNKVLGGVWLNRARLEPLRVYSIHQGDYIQLGLRSLLLENAEYEYEVTEEDWETIYPCLSPKNDQMIEKN
binds: all assays above

B2: Erk2 clone C expressed from pcDNA3.1-RNF8-V5/His in HEK293T cells (designed binder, not shown: small tags and cut ends)
chain: GEPGFFVTGDRAGGRSWCLRRVGMSAGWLLLEDGCEVTVGFGTGVTYQLVSKYLPSWFTYNHCVLKQNPEGQWTIMDNKSLTGVWLNRARLEPLRVYSIHQGDYIQLGAMTTSYENAEYEYEVTEEDWETIYPCLSPKNDQMIEKN
binds: all assays above

B3: Erk2 clone A expressed from pcDNA3.1-RNF8-V5/His in HEK293T cells (designed binder, not shown: small tags and cut ends)
chain: GEPGFFVTGDRAGGRSWCLRRVGMSAGWLLLEDGCEVTVGFGTGVTYQLVSKYLPSWFTYNHCVLKQNPEGQWTIMDNKSLTGVWLNRARLEPLRVYSIHQGDYIQLGGIWSDLENAEYEYEVTEEDWETIYPCLSPKNDQMIEKN
binds: all assays above
